Data: publication PMC5685703
Results are given in words; binding and its absence hold for the method and conditions named. Binding seen in cells or lysates may run through a third protein. Some binding calls cover weakened binding; strength is not graded here. Each block holds one substance with its values, some of them ahead of it.

By UniProt entry, the sequences of proteins in these tests, tags left out.
UniProt P35226: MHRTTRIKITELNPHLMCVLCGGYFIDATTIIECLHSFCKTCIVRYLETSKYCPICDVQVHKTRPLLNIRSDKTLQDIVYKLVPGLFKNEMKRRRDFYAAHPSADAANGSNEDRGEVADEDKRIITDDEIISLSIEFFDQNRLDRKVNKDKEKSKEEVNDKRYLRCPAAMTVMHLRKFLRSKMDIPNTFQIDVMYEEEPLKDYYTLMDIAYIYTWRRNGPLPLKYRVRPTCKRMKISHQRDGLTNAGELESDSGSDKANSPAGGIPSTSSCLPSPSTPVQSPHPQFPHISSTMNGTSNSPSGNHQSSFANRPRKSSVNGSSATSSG
UniProt Q13535: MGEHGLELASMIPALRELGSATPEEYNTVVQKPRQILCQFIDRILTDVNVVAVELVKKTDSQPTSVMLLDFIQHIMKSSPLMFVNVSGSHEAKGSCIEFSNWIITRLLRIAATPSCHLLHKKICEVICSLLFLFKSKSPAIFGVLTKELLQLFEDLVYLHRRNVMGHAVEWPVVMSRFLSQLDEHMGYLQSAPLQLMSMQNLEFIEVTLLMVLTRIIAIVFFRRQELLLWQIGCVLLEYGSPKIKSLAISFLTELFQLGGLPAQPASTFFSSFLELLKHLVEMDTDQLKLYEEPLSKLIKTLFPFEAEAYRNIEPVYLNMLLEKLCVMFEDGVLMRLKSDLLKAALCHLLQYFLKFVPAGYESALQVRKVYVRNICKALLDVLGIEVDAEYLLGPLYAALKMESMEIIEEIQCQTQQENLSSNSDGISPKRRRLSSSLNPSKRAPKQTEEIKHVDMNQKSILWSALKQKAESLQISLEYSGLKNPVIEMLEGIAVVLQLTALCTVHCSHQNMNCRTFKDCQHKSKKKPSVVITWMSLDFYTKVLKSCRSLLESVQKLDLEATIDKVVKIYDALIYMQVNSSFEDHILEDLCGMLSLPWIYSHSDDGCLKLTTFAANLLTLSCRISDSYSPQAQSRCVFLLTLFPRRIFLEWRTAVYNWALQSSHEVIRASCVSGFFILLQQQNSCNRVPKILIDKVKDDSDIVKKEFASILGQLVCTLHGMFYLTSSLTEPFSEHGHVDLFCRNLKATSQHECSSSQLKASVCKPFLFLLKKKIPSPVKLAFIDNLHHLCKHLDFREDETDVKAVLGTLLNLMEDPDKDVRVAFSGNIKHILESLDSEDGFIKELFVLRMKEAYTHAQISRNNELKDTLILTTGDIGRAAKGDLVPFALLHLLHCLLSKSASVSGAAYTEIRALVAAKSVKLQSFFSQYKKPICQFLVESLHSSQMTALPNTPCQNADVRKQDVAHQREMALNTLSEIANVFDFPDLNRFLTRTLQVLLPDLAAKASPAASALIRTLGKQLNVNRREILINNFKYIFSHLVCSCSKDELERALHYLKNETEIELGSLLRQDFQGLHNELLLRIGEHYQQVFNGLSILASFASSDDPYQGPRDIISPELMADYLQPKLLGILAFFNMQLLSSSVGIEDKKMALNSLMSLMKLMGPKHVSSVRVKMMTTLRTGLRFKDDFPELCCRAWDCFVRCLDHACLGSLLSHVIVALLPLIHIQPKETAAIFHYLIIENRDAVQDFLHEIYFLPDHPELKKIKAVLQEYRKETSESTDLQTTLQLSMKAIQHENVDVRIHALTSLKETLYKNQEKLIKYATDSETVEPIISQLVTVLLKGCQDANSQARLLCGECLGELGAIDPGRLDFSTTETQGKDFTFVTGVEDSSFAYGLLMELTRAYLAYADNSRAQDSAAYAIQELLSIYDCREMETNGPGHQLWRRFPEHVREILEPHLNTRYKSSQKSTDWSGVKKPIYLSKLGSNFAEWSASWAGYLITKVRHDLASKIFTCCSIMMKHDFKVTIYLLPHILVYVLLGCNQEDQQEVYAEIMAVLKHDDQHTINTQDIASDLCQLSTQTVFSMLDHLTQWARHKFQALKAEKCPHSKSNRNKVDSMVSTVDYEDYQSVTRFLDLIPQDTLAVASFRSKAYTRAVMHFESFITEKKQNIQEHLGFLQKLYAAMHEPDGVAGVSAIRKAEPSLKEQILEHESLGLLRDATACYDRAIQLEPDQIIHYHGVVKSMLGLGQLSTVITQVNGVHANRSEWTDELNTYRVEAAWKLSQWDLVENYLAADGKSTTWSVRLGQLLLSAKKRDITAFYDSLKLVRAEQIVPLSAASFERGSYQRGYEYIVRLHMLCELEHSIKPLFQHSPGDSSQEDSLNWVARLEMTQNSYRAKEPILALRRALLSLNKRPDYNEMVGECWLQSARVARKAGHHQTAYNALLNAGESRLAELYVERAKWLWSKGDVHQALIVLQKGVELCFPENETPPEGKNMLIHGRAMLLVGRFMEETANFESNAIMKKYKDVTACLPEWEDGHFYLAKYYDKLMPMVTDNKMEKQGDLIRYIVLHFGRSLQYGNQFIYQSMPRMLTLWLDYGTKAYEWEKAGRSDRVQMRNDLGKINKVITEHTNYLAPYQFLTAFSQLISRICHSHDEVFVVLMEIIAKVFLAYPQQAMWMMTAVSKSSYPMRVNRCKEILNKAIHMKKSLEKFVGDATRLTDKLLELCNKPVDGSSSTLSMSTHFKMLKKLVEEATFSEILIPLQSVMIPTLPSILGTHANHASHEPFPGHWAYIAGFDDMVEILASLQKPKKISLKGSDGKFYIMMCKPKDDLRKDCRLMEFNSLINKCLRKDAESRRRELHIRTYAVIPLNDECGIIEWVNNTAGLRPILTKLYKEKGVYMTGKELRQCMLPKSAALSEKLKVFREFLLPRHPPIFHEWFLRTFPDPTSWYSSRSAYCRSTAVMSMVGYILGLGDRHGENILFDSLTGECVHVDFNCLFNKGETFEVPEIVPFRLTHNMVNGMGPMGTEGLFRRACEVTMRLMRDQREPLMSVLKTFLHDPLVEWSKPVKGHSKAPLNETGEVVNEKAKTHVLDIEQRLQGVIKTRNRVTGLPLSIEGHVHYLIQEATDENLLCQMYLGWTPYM

What was measured:
[1] = molecular target: BMI1 (ectopic, co-transfected with TOPBP1 in 293T cells) (UniProt P35226); assay: co-IP; 293T cells co-transfected with BMI1 and TOPBP1 for 36 hours, without or with HU (1 mM, 24 hours); lysates IP with anti-BMI1 or control IgG, with or without ethidium bromide (50 μg/ml); Western blot for TOPBP1, BMI1 and ATR
[2] = molecular target: BMI1 (endogenous, MCF7 cells) (human (endogenous in MCF7)) (UniProt P35226); assay: co-IP; MCF7 cells without or with HU (1 mM, 24 hours); lysates treated with benzonase 1 U/μl on ice for 1 hour; IP of endogenous BMI1; Western blot
[3] = molecular target: ATR (endogenous, MCF7 cells) (human (endogenous in MCF7)) (UniProt Q13535); assay: co-IP; MCF7 cells without or with HU (1 mM, 24 hours); lysates treated with benzonase 1 U/μl on ice for 1 hour; IP of endogenous ATR; Western blot

binding [1]: binds
Substance: ATR (endogenous, 293T cells) (from UniProt Q13535 1-2644)

binding [2]: binds
Substance: ATR (endogenous, MCF7 cells) (from UniProt Q13535 1-2644)

binding [3]: binds
Substance: BMI1 (endogenous, MCF7 cells) (from UniProt P35226 1-326)
